This is an account of results in publication PMC8058344, “ARIH1 signaling promotes anti-tumor immunity by targeting PD-L1 for proteasomal degradation” (Nature Communications, 2021).

Protein sequences, listed by entry. Tags and fused reporters are not part of them. Residues count along the entry.
UniProt Q9NZQ7, residues 19-290: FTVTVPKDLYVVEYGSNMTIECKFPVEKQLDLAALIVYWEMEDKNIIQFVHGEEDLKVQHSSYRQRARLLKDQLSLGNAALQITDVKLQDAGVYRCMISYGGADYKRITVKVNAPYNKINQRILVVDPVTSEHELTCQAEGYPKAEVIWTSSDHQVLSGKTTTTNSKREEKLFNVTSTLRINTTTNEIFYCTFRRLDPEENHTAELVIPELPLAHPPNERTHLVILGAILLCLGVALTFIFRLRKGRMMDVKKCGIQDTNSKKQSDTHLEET
UniProt P49840: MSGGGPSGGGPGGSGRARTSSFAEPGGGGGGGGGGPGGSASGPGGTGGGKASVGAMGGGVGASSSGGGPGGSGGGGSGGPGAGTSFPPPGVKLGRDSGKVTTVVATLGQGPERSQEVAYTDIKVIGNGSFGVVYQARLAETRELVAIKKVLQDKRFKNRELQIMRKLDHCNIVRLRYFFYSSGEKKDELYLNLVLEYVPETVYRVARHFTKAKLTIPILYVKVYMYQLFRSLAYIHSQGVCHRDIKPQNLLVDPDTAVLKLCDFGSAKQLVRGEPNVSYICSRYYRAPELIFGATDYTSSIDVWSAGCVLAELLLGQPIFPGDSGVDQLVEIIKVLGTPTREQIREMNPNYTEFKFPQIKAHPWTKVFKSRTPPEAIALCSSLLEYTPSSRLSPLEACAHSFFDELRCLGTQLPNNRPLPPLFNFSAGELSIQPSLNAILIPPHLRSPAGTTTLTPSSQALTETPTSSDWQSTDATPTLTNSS
UniProt Q9Y4X5: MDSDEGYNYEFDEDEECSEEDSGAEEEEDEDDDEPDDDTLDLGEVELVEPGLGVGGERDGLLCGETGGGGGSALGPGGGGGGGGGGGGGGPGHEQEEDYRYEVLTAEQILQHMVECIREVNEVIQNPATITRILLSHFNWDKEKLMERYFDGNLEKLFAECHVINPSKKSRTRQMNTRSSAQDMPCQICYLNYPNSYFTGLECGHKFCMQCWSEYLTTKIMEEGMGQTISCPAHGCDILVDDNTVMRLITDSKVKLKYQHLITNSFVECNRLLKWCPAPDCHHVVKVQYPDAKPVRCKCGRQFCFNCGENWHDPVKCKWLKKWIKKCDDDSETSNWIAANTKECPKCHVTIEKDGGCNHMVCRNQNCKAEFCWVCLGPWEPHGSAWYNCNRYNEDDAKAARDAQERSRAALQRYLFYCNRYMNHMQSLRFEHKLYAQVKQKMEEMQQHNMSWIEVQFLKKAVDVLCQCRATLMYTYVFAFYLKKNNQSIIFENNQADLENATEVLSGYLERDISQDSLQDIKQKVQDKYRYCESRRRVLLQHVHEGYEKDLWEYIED

Assay [1] deals with Flag-PD-L1 (WT) (human) (UniProt Q9NZQ7). Briefly: affinity purification with mass spectrometry; HEK293T cells transfected with Flag-PD-L1, treated with ES-072 (10 μM) for 48 h; proteins co-immunoprecipitated with PD-L1 analysed by mass spectrometry.
For assay [2] the target is unchanged. Described as above. This is another data set of the same source.

Where two headings read alike, the source gives them in different places. No constants are given. Whether binding was seen depends on the method and setting. In cells and extracts the contact can be indirect. These calls come from enrichment with a bait or labelling near it, and not all partners need be listed.

As for “endogenous GSK3α (from UniProt P49840 1-483) (enzyme)”, the binding entry with Flag-PD-L1 (WT) (human) [1] is “binds”. Still for that read-out and setting: under “endogenous ARIH1 (from UniProt Q9Y4X5 1-557) (enzyme)” stands “binds”.

B1: ring finger protein 25 (RNF25) (enzyme, UniProt Q96BH1 1-459)
chain: MAASASAAAGEEDWVLPSEVEVLESIYLDELQVIKGNGRTSPWEIYITLHPATAEDQDSQYVCFTLVLQVPAEYPHEVPQISIRNPRGLSDEQIHTILQVLGHVAKAGLGTAMLYELIEKGKEILTDNNIPHGQCVICLYGFQEKEAFTKTPCYHYFHCHCLARYIQHMEQELKAQGQEQEQERQHATTKQKAVGVQCPVCREPLVYDLASLKAAPEPQQPMELYQPSAESLRQQEERKRLYQRQQERGGIIDLEAERNRYFISLQQPPAPAEPESAVDVSKGSQPPSTLAAELSTSPAVQSTLPPPLPVATQHICEKIPGTRSNQQRLGETQKAMLDPPKPSRGPWRQPERRHPKGGECHAPKGTRDTQELPPPEGPLKEPMDLKPEPHSQGVEGPPQEKGPGSWQGPPPRRTRDCVRWERSKGRTPGSSYPRLPRGQGAYRPGTRRESLGLESKDGS
B1: in the assay with Flag-PD-L1 (WT) (human) [2], the binding result was “binds”.
